From publication PMC5996148
This is one part of the list. For some of these results: Construct or isoform of the protein are uncertain.

By UniProt entry, the sequences of proteins in these tests, tags left out.
UniProt P42830, whole entry: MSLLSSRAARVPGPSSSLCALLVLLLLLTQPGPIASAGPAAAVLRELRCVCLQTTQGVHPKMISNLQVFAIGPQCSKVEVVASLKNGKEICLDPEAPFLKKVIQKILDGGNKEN

Experiments:
Test in all cases: protein microarray (ProtoArray v5.0), streptavidin-Alexa Fluor 647
Details in all cases: 3'-biotin; 20 mM Tris (pH 7.5), 5 mM MgCl2, 100 mM KCl, 0.1% Tween-20, A/T-rich and random oligonucleotide blockers; temperature not stated; high values mean tight binding
CXCL5 = CXCL5 (UniProt P42830)
CYB5B (human) = test system: CYB5B (human)
CYFIP2 (human) = test system: CYFIP2 (human)
CYP1A1 = molecular target: T1, CYP1A1 (UniProt P04798)
T1 sequence: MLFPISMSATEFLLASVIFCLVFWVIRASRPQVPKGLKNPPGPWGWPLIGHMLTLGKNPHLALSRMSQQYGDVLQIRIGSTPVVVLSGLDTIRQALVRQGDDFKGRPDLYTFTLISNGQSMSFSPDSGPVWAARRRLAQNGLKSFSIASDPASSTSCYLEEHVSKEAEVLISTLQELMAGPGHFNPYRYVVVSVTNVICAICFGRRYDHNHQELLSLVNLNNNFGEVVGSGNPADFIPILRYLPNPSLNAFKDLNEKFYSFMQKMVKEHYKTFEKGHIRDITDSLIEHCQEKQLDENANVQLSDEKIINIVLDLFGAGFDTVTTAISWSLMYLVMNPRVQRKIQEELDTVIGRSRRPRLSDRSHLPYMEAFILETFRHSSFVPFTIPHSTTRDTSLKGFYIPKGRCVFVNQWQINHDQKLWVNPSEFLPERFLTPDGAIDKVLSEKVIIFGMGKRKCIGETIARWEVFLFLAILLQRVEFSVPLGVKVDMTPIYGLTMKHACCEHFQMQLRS

CYP20A1 (human) = test system: CYP20A1 (human)
CYP27A1 (human) = test system: CYP27A1 (human)
CYP4F11 (human) = test system: CYP4F11 (human)
CYTL1 (human) = test system: CYTL1 (human)
[1] = test system: Calcium-binding protein 39-like (human)
[2] = test system: Calcium-transporting ATPase type 2C member 1 (human)

## GGTGACAGGGGTATGGGGAGGGG [G4-2 biotinylated (Ct1)]
CXCL5
  binding signal: -0.359 z-score
CYB5B (human)
  binding signal: -0.387 z-score
CYFIP2 (human)
  binding signal: -0.404 z-score
CYP1A1
  binding signal: -0.38 z-score
CYP20A1 (human)
  binding signal: -0.379 z-score
CYP27A1 (human)
  binding signal: -0.363 z-score
CYP4F11 (human)
  binding signal: -0.378 z-score
CYTL1 (human)
  binding signal: -0.369 z-score
[1]
  binding signal: -0.399 z-score
[2]
  binding signal: -0.366 z-score
